# Literature values in patent US20100028912A1, “IMAGING USING RADIOACTIVE MONOCATIONS IN COMBINATION WITH A RECEPTOR BINDING LIGAND THAT STIMULATES THE INFLUX OF CATIONS” (BRACCO IMAGING S.P.A., priority 2006, published 2010).
# At least one structure is not confirmed: it was looked up by name or label, or the drawing left a doubt. No end group written: not given here.
# Legend:
# [1] = target: T1, Bradykinin receptor (Mus musculus, UniProt P32299); details: NIH-3T3 fibroblasts; through Na+/K+/Cl- cotransporter and Na+/K+-ATPase
# T1 construct: stimulate Rb^+ influx in NIH-3T3 fibroblasts; endogenous in cells; host or cells: NIH-3T3 fibroblasts
# T1 sequence (P32299 1-392): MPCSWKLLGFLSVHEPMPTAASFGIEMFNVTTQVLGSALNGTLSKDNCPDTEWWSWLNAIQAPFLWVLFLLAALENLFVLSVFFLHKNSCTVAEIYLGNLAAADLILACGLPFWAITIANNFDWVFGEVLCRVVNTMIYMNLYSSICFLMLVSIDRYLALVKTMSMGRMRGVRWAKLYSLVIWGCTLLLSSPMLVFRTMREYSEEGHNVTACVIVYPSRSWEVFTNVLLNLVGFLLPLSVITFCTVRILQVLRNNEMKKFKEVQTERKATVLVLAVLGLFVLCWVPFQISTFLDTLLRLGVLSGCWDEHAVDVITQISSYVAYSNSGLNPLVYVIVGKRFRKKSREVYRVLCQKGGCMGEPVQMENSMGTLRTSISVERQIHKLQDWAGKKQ
# [2] = test system: quiescent Swiss 3T3 cells
Molecule,stimulation of Rb+ influx [1],"increase of initial rate of total 86Rb+ uptake into the cells ([2]; 6.2 nM bombesin, n=49) [%]",EC50 ([2]; read-out: concentration for half-maximal stimulation of 86Rb+ uptake) [pM]
RPPGFSPFR [Bradykinin],+82.6%,–,–
CSCC[C@H](NC(=O)[C@H](CC(C)C)NC(=O)[C@H](Cc1cnc[nH]1)NC(=O)CNC(=O)[C@@H](NC(=O)[C@H](C)NC(=O)[C@H](Cc1c[nH]c2ccccc12)NC(=O)[C@H](CCC(N)=O)NC(=O)[C@H](CC(N)=O)NC(=O)CNC(=O)[C@H](CC(C)C)NC(=O)[C@H](CCCN=C(N)N)NC(=O)[C@H](CCC(N)=O)NC(=O)[C@@H]1CCC(=O)N1)C(C)C)C(N)=O [bombesin],–,70±3,300 to 400
